Data published in paper PMC7948947.
Results are given in words; binding and its absence hold for the method and conditions named. Binding seen in cells or lysates may run through a third protein. Binding can be weak; no strength is given.

Sequences of proteins named here, by UniProt entry; tags and fusion partners are left off. A change or cut given only in a name is not applied to a line headed by its entry.
UniProt P06241: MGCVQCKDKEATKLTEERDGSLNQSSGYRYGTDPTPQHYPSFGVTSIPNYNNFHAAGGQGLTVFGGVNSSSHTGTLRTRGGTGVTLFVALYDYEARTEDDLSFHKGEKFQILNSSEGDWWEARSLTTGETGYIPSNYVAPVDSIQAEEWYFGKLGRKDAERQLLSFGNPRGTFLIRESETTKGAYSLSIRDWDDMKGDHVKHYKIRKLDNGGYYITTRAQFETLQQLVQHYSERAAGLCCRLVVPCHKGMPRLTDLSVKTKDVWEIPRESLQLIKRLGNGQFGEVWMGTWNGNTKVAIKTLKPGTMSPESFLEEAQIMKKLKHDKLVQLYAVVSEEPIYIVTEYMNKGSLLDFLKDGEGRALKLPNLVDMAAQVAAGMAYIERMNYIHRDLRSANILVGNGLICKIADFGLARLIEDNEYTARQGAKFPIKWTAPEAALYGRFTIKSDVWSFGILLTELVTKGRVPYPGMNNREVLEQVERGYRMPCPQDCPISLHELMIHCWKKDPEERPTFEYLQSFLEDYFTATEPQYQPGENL
UniProt P39688: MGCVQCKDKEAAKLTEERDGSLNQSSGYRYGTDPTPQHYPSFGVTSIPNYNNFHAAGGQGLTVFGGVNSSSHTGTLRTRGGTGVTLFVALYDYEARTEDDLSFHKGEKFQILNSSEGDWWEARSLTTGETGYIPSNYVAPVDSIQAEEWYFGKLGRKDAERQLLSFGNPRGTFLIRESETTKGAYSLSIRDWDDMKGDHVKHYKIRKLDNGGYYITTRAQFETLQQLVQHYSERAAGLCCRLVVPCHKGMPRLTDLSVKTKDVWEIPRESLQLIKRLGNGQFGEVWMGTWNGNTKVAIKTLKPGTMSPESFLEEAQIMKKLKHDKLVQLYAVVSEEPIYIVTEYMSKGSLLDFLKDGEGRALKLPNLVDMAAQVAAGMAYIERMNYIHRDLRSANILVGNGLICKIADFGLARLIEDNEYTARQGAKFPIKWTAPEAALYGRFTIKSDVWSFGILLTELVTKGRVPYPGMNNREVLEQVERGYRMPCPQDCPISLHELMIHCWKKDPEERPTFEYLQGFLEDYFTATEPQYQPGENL
UniProt P63330: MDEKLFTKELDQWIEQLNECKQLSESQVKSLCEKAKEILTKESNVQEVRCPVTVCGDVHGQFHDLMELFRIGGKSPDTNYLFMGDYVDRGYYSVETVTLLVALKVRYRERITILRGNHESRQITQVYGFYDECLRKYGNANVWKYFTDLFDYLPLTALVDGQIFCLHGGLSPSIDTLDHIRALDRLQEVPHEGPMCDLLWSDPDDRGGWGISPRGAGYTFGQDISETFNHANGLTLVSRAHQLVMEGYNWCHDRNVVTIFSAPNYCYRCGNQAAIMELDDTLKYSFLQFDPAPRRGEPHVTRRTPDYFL

Assays:
[1] = molecular target: GFP-tagged human Fyn (human) (UniProt P06241); assay: co-IP; anti-GFP–coupled magnetic beads, NP-40 detergent-insoluble fraction of GFP–Fyn–expressing N2a cells (EV control), overnight at 4 °C; Western blot for Fyn and PP2Ac
[2] = molecular target: Fyn (endogenous) (mouse (endogenous in mouse cortex and N2a cells)) (UniProt P39688); assay: co-IP; Fyn immunoprecipitates from total mouse cortical homogenates (~500 μg protein, precleared, antibody overnight at 4 °C, Protein A/G magnetic beads, washed in buffer with 1% NP-40 + 0.5% deoxycholate); Western blot for PP2Ac

PP2A catalytic "C" subunit (PP2Ac), endogenous (from UniProt P63330)
binding [1]: binds | binding [2]: binds
